No constants are given. Whether binding was seen depends on the method and setting. Binding seen in cells or lysates may run through a third protein. These calls come from enrichment with a bait or labelling near it, and not all partners need be listed.
The molecules below were run against protein arginine methyltransferase 5 (PRMT5) (human (endogenous in MCF-7)) (UniProt O14744) (assay: affinity purification with mass spectrometry; MCF-7_RBKO lysates (NP-40 lysis buffer: 20 mM Tris-HCl pH 7.6, 150 mM NaCl, 0.1% NP-40, 1 mM EDTA) immunoprecipitated with a PRMT5 antibody or rabbit IgG control, overnight 4°C, protein-G Dyna beads; MS; enrichment log2FC ≥0.5 and FDR <0.05).

Sequences of proteins named here, by UniProt entry; tags and fusion partners are left off.
UniProt O14744: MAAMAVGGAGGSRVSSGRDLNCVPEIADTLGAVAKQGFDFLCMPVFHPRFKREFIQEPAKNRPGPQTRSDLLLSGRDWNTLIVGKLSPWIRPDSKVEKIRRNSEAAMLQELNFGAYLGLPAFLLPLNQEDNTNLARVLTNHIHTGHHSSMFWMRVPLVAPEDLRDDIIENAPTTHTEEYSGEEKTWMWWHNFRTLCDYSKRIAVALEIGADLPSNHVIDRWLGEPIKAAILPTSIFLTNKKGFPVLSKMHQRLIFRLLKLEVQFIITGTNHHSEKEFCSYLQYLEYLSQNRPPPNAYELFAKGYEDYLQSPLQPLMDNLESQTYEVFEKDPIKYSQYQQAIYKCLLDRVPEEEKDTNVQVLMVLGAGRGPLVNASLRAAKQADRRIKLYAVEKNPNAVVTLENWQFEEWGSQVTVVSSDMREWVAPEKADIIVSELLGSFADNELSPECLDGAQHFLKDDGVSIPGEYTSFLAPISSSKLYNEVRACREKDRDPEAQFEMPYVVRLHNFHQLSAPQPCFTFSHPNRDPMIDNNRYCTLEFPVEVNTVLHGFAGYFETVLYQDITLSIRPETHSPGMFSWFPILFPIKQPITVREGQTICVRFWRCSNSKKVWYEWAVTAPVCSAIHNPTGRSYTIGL
UniProt Q13283: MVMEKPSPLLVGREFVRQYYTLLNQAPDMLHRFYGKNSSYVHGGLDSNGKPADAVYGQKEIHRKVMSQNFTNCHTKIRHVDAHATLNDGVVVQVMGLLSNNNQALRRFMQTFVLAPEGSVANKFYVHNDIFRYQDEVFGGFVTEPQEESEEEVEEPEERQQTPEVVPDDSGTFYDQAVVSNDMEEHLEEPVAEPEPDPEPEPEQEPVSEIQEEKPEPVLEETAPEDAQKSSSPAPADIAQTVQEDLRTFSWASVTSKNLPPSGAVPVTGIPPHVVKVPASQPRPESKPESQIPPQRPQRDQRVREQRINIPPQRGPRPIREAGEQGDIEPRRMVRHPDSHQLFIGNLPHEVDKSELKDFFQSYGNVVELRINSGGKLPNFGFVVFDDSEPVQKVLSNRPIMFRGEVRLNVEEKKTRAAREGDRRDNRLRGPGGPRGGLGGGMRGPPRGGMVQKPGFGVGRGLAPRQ
UniProt P35637: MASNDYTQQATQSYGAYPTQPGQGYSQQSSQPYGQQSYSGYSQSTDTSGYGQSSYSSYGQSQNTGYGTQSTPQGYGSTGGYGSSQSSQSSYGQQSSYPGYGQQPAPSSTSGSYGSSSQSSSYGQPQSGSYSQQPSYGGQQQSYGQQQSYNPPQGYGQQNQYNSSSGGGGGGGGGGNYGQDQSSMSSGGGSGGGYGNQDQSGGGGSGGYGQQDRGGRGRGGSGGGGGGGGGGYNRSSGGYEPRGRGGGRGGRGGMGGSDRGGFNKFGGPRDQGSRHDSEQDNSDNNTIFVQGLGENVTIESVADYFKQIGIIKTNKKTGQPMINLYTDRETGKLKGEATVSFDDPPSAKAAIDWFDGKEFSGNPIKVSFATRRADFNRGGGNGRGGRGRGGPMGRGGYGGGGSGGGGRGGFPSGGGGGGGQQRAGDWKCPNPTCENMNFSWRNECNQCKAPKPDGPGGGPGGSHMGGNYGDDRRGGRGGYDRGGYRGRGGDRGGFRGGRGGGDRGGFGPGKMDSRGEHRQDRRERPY
UniProt Q96AE4: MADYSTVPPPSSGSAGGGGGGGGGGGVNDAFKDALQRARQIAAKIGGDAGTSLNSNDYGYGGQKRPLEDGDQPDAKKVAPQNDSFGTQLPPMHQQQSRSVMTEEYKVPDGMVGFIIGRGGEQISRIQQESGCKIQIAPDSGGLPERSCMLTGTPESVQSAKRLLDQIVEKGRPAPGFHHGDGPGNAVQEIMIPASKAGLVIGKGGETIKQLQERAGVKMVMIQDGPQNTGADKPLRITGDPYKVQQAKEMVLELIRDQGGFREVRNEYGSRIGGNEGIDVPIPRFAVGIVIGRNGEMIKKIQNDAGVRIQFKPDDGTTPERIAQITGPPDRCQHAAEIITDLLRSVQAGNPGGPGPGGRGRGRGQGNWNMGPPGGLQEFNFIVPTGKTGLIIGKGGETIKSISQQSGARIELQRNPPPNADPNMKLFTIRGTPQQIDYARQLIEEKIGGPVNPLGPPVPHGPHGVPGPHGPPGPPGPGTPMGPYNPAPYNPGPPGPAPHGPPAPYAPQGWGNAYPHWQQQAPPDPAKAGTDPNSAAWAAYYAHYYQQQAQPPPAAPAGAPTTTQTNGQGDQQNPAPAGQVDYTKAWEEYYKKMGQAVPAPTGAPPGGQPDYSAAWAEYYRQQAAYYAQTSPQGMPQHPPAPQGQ
UniProt P51116: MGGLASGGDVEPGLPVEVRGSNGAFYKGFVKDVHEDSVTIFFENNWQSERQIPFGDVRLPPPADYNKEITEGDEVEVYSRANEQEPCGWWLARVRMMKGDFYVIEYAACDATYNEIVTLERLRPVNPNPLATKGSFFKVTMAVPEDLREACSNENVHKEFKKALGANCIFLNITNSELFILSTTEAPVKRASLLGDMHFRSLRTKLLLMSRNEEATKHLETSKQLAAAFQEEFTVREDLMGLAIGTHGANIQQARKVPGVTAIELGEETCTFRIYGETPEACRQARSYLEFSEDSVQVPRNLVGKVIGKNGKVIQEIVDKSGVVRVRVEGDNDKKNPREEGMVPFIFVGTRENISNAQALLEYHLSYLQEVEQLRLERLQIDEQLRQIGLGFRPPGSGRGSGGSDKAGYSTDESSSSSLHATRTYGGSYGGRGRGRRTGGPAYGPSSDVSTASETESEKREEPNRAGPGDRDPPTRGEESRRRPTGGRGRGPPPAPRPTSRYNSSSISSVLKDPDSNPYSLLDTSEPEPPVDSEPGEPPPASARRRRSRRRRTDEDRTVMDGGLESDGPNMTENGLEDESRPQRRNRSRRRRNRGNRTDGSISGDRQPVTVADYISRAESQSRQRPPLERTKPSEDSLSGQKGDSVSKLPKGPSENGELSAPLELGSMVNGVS

| binding | Molecule |
| --- | --- |
| binds | G3BP1 (from UniProt Q13283 1-466) |
| binds | fused in sarcoma (FUS) (from UniProt P35637 1-526) |
| binds | FUBP1 (from UniProt Q96AE4 1-644) |
| binds | FXR2 (from UniProt P51116 1-673) |
| binds | COPR5 (protein, UniProt Q9NQ92 1-184) MDLQAAGAQAQGAAEPSRGPPLPSARGAPPSPEAGFATADHSSQERETEKAMDRLARGTQSIPNDSPARGEGTHSEEEGFAMDEEDSDGELNTWELSEGTNCPPKEQPGDLFNEDWDSELKADQGNPYDADDIQESISQELKPWVCCAPQGDMIYDPSWHHPPPLIPYYSKMVFETGQFDDAED |
| binds | FAM120A (protein, UniProt Q9NZB2 1-1118) MGVQGFQDYIEKHCPSAVVPVELQKLARGSLVGGGRQRPPQTPLRLLVDADNCLHRLYGGFYTDWVSGGQWNHMLGYLAALAKACFGGNIELFVFFNGALEKARLHEWVKRQGNERQTAQQIVSHVQNKGTPPPKVWFLPPVCMAHCIRLALIRFHVKVAQSIEDHHQEVIGFCRENGFHGLVAYDSDYALCNIPYYFSAHALKLSRNGKSLTTSQYLMHEVAKQLDLNPNRFPIFAALLGNHILPDEDLASFHWSLLGPEHPLASLKVRAHQLVLPPCDVVIKAVADYVRNIQDTSDLDAIAKDVFQHSQSRTDDKVIRFKRAIGYYSATSKPMSFHPPHYLAARPGPFGMPGMVPPHVPPQMLNIPQTSLQAKPVAPQVPSPGGAPGQGPYPYSLSEPAPLTLDTSGKNLTEQNSYSNIPHEGKHTPLYERSSPINPAQSGSPNHVDSAYFPGSSTSSSSDNDEGSGGATNHISGNKIGWEKTGSHSEPQARGDPGDQTKAEGSSTASSGSQLAEGKGSQMGTVQPIPCLLSMPTRNHMDITTPPLPPVAPEVLRVAEHRHKKGLMYPYIFHVLTKGEIKIAVSIEDEANKDLPPAALLYRPVRQYVYGVLFSLAESRKKTERLAFRKNRLPPEFSPVIIKEWAAYKGKSPQTPELVEALAFREWTCPNLKRLWLGKAVEDKNRRMRAFLACMRSDTPAMLNPANVPTHLMVLCCVLRYMVQWPGARILRRQELDAFLAQALSPKLYEPDQLQELKIENLDPRGIQLSALFMSGVDMALFANDACGQPIPWEHCCPWMYFDGKLFQSKLLKASREKTPLIDLCDGQADQAAKVEKMRQSVLEGLSFSRQSHTLPFPPPPALPFYPASAYPRHFGPVPPSQGRGRGFAGVCGFGGPYGETVATGPYRAFRVAAASGHCGAFSGSDSSRTSKSQGGVQPIPSQGGKLEIAGTVVGHWAGSRRGRGGRGPFPLQVVSVGGPARGRPRGVISTPVIRTFGRGGRYYGRGYKNQAAIQGRPPYAASAEEVAKELKSKSGESKSSAMSSDGSLAENGVMAEEKPAPQMNGSTGDARAPSHSESALNNDSKTCNTNPHLNALSTDSACRREAALEAAVLNKEE |
